PubChem BioAssay AID602196 | INSERM, 2012
Aim: 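Modifiers of cisplatin sensitivity in A549 cells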. Cells: human A549 lung cancer cells. Knock-down reagent: siRNA pair against human genes. Timing: 48 h transfection before cisplatin; time from cisplatin to read-out not stated. Treatment: cisplatin at a dose killing half of control-siRNA cells; exact dose and duration not given. Measurement: 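Cisplatin cell death as a shift from the 50% death seen with control siRNA; siRNAs toxic or growth-blocking alone scored 0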. Scale: two-siRNA summed score (-2 to +2): higher = both siRNAs protect from cisplatin killing; -2 means both sensitise. Rule for the call: 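siRNAs harmful alone (LDH or WST-1) get 0; others get +1 for less and -1 for more cisplatin killing; genes are active when the two siRNAs give the same sign, summing to ±2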. Meaning of the calls: active = both siRNAs shift cisplatin killing the same way; inactive = no consistent shift, or siRNA harmful alone.
Shown is a random part of about 23,000 deposited reagents. 455 of all reagents (2%) count as active. 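Active includes both protection and sensitisation; some change values fall well beyond the stated -50 to +50 range.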 Not all columns of the deposit are shown. No sequences are given here. The record does not give: the amount of reagent.

gene knocked down	PubChem SID	two-siRNA summed score (-2 to +2)	Outcome
AAMDC	SID131505080	0	inactive
LOC402617	SID131521057	1	inactive
CNNM2	SID131506872	0	inactive
SIAH2	SID131505316	0	inactive
UBR1	SID131502679	-1	inactive
ARHGAP27	SID131502739	-1	inactive
LOC440891	SID131515320	0	inactive
CREM	SID131500391	-2	active
CREB1	SID131501510	-1	inactive
CYREN	SID131505344	0	inactive
CAMK2G	SID131504577	0	inactive
SYK	SID131514633	0	inactive
LOC440100	SID131522110	1	inactive
LOC402604	SID131503728	0	inactive
APOL2	SID131500938	-1	inactive
LOC338829	SID131510973	0	inactive
LOC389863	SID131510608	0	inactive
CPT1C	SID131509812	0	inactive
PRR11	SID131508043	0	inactive
CFAP300	SID131508006	0	inactive
DUBR	SID131521381	1	inactive
ZNF14	SID131508325	0	inactive
CCDC86	SID131505088	0	inactive
EYA4	SID131513914	0	inactive
H2AC4	SID131518207	0	inactive
ASB6	SID131501649	-1	inactive
LOC441085	SID131511351	0	inactive
LINC00301	SID131506090	0	inactive
ANGPTL1	SID131509697	0	inactive
LOC400093	SID131503500	0	inactive
ZSWIM8	SID131507010	0	inactive
FLJ42258 (retired record)	SID131516183	0	inactive
LOC390259	SID131522101	1	inactive

In a second layout: entries from further up.
CPT1C [SID131509812]
- two-siRNA summed score (-2 to +2): 0
- Outcome: inactive

PRR11 [SID131508043]
- two-siRNA summed score (-2 to +2): 0
- Outcome: inactive

CFAP300 [SID131508006]
- two-siRNA summed score (-2 to +2): 0
- Outcome: inactive

DUBR [SID131521381]
- two-siRNA summed score (-2 to +2): 1
- Outcome: inactive

ZNF14 [SID131508325]
- two-siRNA summed score (-2 to +2): 0
- Outcome: inactive

CCDC86 [SID131505088]
- two-siRNA summed score (-2 to +2): 0
- Outcome: inactive

EYA4 [SID131513914]
- two-siRNA summed score (-2 to +2): 0
- Outcome: inactive

H2AC4 [SID131518207]
- two-siRNA summed score (-2 to +2): 0
- Outcome: inactive

ASB6 [SID131501649]
- two-siRNA summed score (-2 to +2): -1
- Outcome: inactive

More results follow.
gene knocked down	PubChem SID	two-siRNA summed score (-2 to +2)	Outcome
MYRIP	SID131511536	0	inactive
ATP5F1E	SID131512661	0	inactive
HSD17B13	SID131507111	0	inactive
TBCCD1	SID131514717	0	inactive
KNSTRN	SID131508624	0	inactive
TPRG1L	SID131508993	0	inactive
UTP6	SID131501503	-1	inactive
COG3	SID131510994	0	inactive
SSTR4	SID131506975	0	inactive
AZIN1	SID131505368	0	inactive
LOC441952	SID131521943	1	inactive
MYC	SID131506181	0	inactive
IL17RA	SID131505816	0	inactive
SS18L2	SID131505221	0	inactive
TAF9B	SID131515278	0	inactive
THOC1	SID131501488	-1	inactive
HNRNPH2	SID131507382	0	inactive
LOC389049	SID131516455	0	inactive
OMG	SID131522246	1	inactive
ALDH3A1	SID131505329	0	inactive
LOC283994	SID131521842	1	inactive
NCBP2AS2	SID131512727	0	inactive
ARHGEF17	SID131514037	0	inactive
LOC390508	SID131510091	0	inactive
